Results published in article PMC10110401.

The chains behind the UniProt entries cited, without tags or fusion partners.
UniProt P70372, whole entry: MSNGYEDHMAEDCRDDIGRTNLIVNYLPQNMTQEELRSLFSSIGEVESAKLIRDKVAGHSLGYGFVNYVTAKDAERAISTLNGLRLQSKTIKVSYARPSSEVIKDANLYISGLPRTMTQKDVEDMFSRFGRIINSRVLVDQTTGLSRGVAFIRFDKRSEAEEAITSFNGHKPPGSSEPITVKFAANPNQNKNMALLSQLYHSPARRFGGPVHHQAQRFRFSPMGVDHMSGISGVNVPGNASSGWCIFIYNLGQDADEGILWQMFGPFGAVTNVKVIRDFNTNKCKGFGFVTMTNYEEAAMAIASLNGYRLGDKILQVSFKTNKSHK

Target: HuR (endogenous, RAW 264.7 lysate) (Mus musculus (RAW 264.7)) (UniProt P70372)
Test: pull-down
Conditions: pull-down: lysis in 20 mM Tris-HCl pH 7.5, 100 mM KCl, 5 mM MgCl2, 0.5% NP-40, probe 0.5 uM in TENT (20 mM Tris-HCl pH 8.0, 2 mM EDTA, 500 mM NaCl, 1% Triton X-100), 4 C, protein in an extract, label: biotin

Sequence | binding result (probe described as not recognized by HuR, biotin) | binding result (DMSO, HuR signal reduced ~50% after TM7nox 10 uM pre-treatment, 5'-biotin)
ACCACCCACCACCCACCCACCACCCA [Bi-TNFneg (ARE-Neg)] | no binding | –
AUUAUUUAUUAUUUAUUUAUUAUUUA [Bi-TNF ARE probe] | – | binds

The exact form of at least one protein or probe is not confirmed. At least one result comes from cells or an extract, where the contact may be indirect. No signal at the amounts used counts as a negative. At least one verdict was read from the data and is not stated in words by the source.
